Source: article PMC12040169 (PLOS Biology, 2025)
The list shows a part of the results.

System: T1, CTL2-GFP (C. trachomatis L2/434/Bu, GFP-expressing)
T1 construct: L2/434/Bu, GFP-expressing
Parameters: species or system HeLa; Intracellular C. trachomatis growth in HeLa cells, bulk GFP fluorescence relative to DMSO
Conditions: bulk GFP, single well; 28.5 h, 10 µM; inhibitor

Question: `CNC(=O)C1(Cc2ccccc2-c2cccs2)CCN(C(=O)c2ccccc2OC)CC1` [CBK285685] was tested. Which “% of control remaining” value did it give?
Answer: 125.717%

Question: How did the “% of control remaining” value turn out when `Cc1ccc(C(N)=O)c(OCC(=O)N2c3ccccc3CCC2C)c1` (stereo not drawn) [CBK295633] was run?
Answer: 132.334%

Question: For `COc1ccccc1Nc1nc(N)nc(CSCCO)n1` [CBK266679], which “% of control remaining” value is on record?
Answer: 170.433%

Question: `CCCc1cc(C(=O)N(C)CCOc2ccccc2)[nH]n1` [CBK283162] was tested. Which “% of control remaining” value did it give?
Answer: 124.527%

Question: `CNC(=O)C1(Cc2ccc(-c3ccccc3)cc2)CCN(C(=O)c2ccccc2)CC1` [CBK285761] was tested. Which “% of control remaining” value did it give?
Answer: 123.955%

Question: For `COc1ccccc1NC(=O)CN(c1ccc(C)cc1)S(=O)(=O)c1ccc(F)cc1` [CBK262718], which “% of control remaining” value is on record?
Answer: 84.2653%

Question: Which “% of control remaining” value does the source give for `COc1cccc(-n2nnc3c(SCC(N)=O)ncnc32)c1` [CBK287543] here?
Answer: 125.514%

Question: Which “% of control remaining” value does the source give for `Cc1ccc(OCC(=O)NCC(c2cccs2)N2CCOCC2)cc1C` (stereo not drawn) [CBK306143] here?
Answer: 103.745%

Question: `Cc1cccnc1NC(=O)c1cc(O)nc2ccccc12` [CBK300499] was tested. Which “% of control remaining” value did it give?
Answer: 135.137%

Question: Which “% of control remaining” value does the source give for `Cc1nn(-c2ccccc2)c(Cl)c1CN1C(=O)NC2(CCCCC2)C1=O` [CBK306043] here?
Answer: 123.123%

Question: With `O=C1Oc2nc3ccccc3cc2CN1C1CC1` [CBK282870] as the compound, how does the “% of control remaining” value read?
Answer: 3.057%

Question: For `O=C(C1C2CCCCC21)N1CCC(Oc2cccc(F)c2)CC1` (stereo not drawn) [CBK282216], which “% of control remaining” value is on record?
Answer: 117.895%

Question: Which “% of control remaining” value does the source give for `Clc1ccc(Cl)c(-c2nc3ccccc3o2)n1` [CBK095353] here?
Answer: 115.445%

Question: Which “% of control remaining” value does the source give for `O=C(NC1CCCCC1)N[C@H]1CO[C@H]2[C@@H]1OC[C@@H]2Nc1nccc(C2CCCC2)n1` [CBK289531] here?
Answer: 118.095%

Question: How did the “% of control remaining” value turn out when `CCCCc1cc(=O)[nH]c(NCc2ccc(C(F)(F)F)cc2)n1` [CBK003946] was run?
Answer: 93.6183%

Question: Which “% of control remaining” value does the source give for `CC1CCCN(C(=O)CCn2c(-c3ccncc3)cc3cccnc32)C1` (stereo not drawn) [CBK282152] here?
Answer: 127.6%

Question: How did the “% of control remaining” value turn out when `Cc1nccn1CC1CCCN(Cc2ccnc3ccccc23)C1` (stereo not drawn) [CBK281966] was run?
Answer: 159.549%

Question: Which “% of control remaining” value does the source give for `Cc1ccc(C2=NO[C@@](CC(=O)O)(C(=O)Nc3ccc4c(c3)OCCO4)C2)cc1` [CBK286653] here?
Answer: 128.8%

Question: Which “% of control remaining” value does the source give for `CC(C)Cc1cc(CNS(=O)(=O)Cc2ccccc2F)on1` [CBK281505] here?
Answer: 114.52%

Question: With `COC(=O)N1CCCCC1C(=O)NCCc1nc(C)cc(C(F)(F)F)n1` (stereo not drawn) [CBK306752] as the compound, how does the “% of control remaining” value read?
Answer: 141.491%

Question: For `c1cnc(N2CCCC2)c(OCc2ccsc2)n1` [CBK115664], which “% of control remaining” value is on record?
Answer: 109.841%

Question: `COc1cc(C2N(Cc3ccccc3)CCN2Cc2ccccc2)ccc1OC(C)=O` [CBK261349] was tested. Which “% of control remaining” value did it give?
Answer: 100%

Question: For `CC(C)OCC1CN(c2cc(CO)c(F)cn2)CCO1` (stereo not drawn) [CBK304755], which “% of control remaining” value is on record?
Answer: 125.816%

Question: Which “% of control remaining” value does the source give for `Cc1ccc(-c2c(C(=O)NNC(=S)NCC3CCCO3)csc2C)cc1` (stereo not drawn) [CBK267062] here?
Answer: 131.939%

Question: Which “% of control remaining” value does the source give for `c1ccc(OCCN2CCCN(c3nccc(OCCN4CCOCC4)n3)CC2)cc1` [CBK083940] here?
Answer: 102.134%

Question: Which “% of control remaining” value does the source give for `COCCN(Cc1cnn(C)c1)C(=O)c1cc(=O)c2cccc(F)c2[nH]1` [CBK306651] here?
Answer: 162.473%

Question: With `O=C(CCOc1ccccc1)Nc1c(F)cc(F)cc1OC1CCNCC1` [CBK045897T] as the compound, how does the “% of control remaining” value read?
Answer: 126.233%

Question: Which “% of control remaining” value does the source give for `O=C(c1cc(F)c(F)cc1F)N1CCC2(CCCN(Cc3ccc4ccccc4c3)C2)C1` (stereo not drawn) [CBK131998] here?
Answer: 113.092%

Question: Which “% of control remaining” value does the source give for `O=C(CCS(=O)(=O)c1ccccc1)Nc1cncc(OC2CCNCC2)n1` [CBK028438T] here?
Answer: 93.387%

Question: With `CCn1cc(-c2cncn2CCCN2CCCCC2)cn1` [CBK281767] as the compound, how does the “% of control remaining” value read?
Answer: 151.543%

Question: How did the “% of control remaining” value turn out when `O=C(/C=C\c1ccco1)Oc1ccc(/C=N\NC(=O)c2cncc(Br)c2)cc1` [CBK261385] was run?
Answer: 120.91%

Question: How did the “% of control remaining” value turn out when `Cc1ccc2[nH]cc(CCNC(=O)c3cccc(NC(=O)c4ccccc4)c3)c2c1` [CBK269235] was run?
Answer: 137.043%

Question: `CCC(Oc1ccccc1F)C(=O)Nc1cc(C)on1` (stereo not drawn) [CBK305558] was tested. Which “% of control remaining” value did it give?
Answer: 119.189%

Question: `Cc1nn([C@H]2C[C@@H](O)[C@@H](CO)O2)c(=O)[nH]c1=O` [CBK201185] was tested. Which “% of control remaining” value did it give?
Answer: 137.018%

Question: Which “% of control remaining” value does the source give for `CCC(CO)Nc1cncc(-c2cccc(C(F)(F)F)c2)n1` (stereo not drawn) [CBK065783] here?
Answer: 113.298%

Question: For `CCCC(SCC)C(N)=O` (stereo not drawn) [CBK020895], which “% of control remaining” value is on record?
Answer: 129.521%

Question: For `Cc1c(Cl)c(C(=O)N[C@@H]2CCN(Cc3ccccn3)C[C@H]2O)nn1C` [CBK306676], which “% of control remaining” value is on record?
Answer: 143.181%

Question: For `CCC(=O)NCc1ccc(-c2nc3ncccc3o2)cc1` [CBK270220], which “% of control remaining” value is on record?
Answer: 82.9112%

Question: For `Cc1nc(-c2cc(Cl)c(Cl)s2)cs1` [CBK009801], which “% of control remaining” value is on record?
Answer: 127.367%
